Measurements published in patent US20180193409A1 (POLYMERS CRC LIMITED, priority 2015, published 2018).

Experiment: peptide made by a vendor (peptide synthesis; RinkAmide ChemMatrix resin; TBTU/HOBt/DIEA)
Conditions: whole synthesis, RP-HPLC

| Substance | final HPLC purity [%] |
| --- | --- |
| AcACAIEGPTLRQWLAARAACA | >95 |
| AcACAAALRQWLAAACA | >95 |
